Record: PubChem BioAssay AID504764 (Drosophila RNAi Screening Center, 2011)

- Screen: 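Genome-wide screen for regulators of Notch-driven gene expression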 (primary screen)
- System: Drosophila Kc167 cells
- Reagents: long dsRNA against Drosophila genes
- Duration: about 5 days (4 days dsRNA, then 24 h after transfection)
- Conditions: transfection of constitutively active membrane-tethered Notch lacking the extracellular domain, read 24 h later
- Read-out: 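Firefly luciferase from an E(spl)m3 reporter with active Notch, plus control-promoter and uninduced reporter wells for normalisation; unnormalised counts, duplicate wells a and b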
- Reading the numbers: induced reporter light, run 1, well a and induced reporter light, run 1, well b: higher = more light from the Notch target reporter with active Notch; control promoter light, run 1, well a and control promoter light, run 1, well b: higher = more light from the viral control promoter (cell number, transfection, viability); uninduced reporter light, run 1, well a: higher = more light from the Notch target reporter without active Notch
- Active means: 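Wells with low control signal or poorly matching duplicates excluded; duplicates averaged; per source plate, z beyond ±2 for induced/control log2 ratio or beyond ±1.8 for induced/uninduced marks a hit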
- Calls: active = modifier hit (raised or lowered Notch signal); inactive = not a hit
The screen tested about 22,000 reagents; shown is an unselected part of those with a known target gene and a result. In the full data, 403 (1.9%) got an active call. 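Unnormalised raw counts per well; ratio z-scores behind the hit calls and whether each hit raises or lowers signal are not deposited.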 Reagents against one gene are numbered here. Names joined by + are all predicted targets of the reagent. The record does not give: the amount of reagent.

Target gene	dsRNA no.	induced reporter light, run 1, well a	induced reporter light, run 1, well b	control promoter light, run 1, well a	control promoter light, run 1, well b	uninduced reporter light, run 1, well a	call
CG11170 (GeneID 37533)	1	1.94e5	1.99e5	1.58e5	1.68e5	11850	inactive
Usp15-31 (GeneID 37954)	1	38635	52615	49950	54020	3670	inactive
Usp15-31 (GeneID 37954)	2	56430	46585	25175	28555	5655	inactive
CG31806 (GeneID 261615)	1	95705	1.01e5	1.22e5	1.30e5	8455	inactive
CG7101 (GeneID 32875)	1	1.14e5	1.06e5	92630	59055	9335	inactive
CG4702 (GeneID 41472)	1	1.17e5	1.05e5	77855	1.02e5	10015	inactive
Oseg1 (GeneID 38957)	1	1.16e5	97360	1.02e5	29320	10885	inactive
ct (GeneID 44540)	1	44205	53280	54935	53965	3932	inactive
CG31717 (GeneID 318911)	1	1.71e5	1.61e5	1.88e5	1.50e5	10300	inactive
Nipped-A (GeneID 35483)	1	2.24e5	2.25e5	1.95e5	1.75e5	16750	inactive
Nipped-A (GeneID 35483)	2	1.48e5	1.79e5	1.62e5	1.82e5	14710	active
Nipped-A (GeneID 35483)	3	71065	71895	1.17e5	1.10e5	5800	active
Nipped-A (GeneID 35483)	4	1.45e5	1.30e5	3.58e5	3.06e5	9600	inactive
Nipped-A (GeneID 35483)	5						active
scny (GeneID 38648)	1	1.06e5	1.22e5	1.10e5	60565	13640	inactive
scny (GeneID 38648)	2	40305	35415	47480	57020	7670	inactive
CG6271 (GeneID 43252)	1	1.42e5	1.63e5	2.93e5	2.84e5	10992	inactive
dos (GeneID 38321)	1	9050	8215	4990	4545	3992	inactive
dos (GeneID 38321)	2	98225	1.24e5	95705	81305	6930	active
bgcn (GeneID 47873)	1	1.82e5	1.39e5	1.77e5	1.89e5	12580	inactive
bgcn (GeneID 47873)	2	1.49e5	1.47e5	1.85e5	1.86e5	12685	active
LPCAT (GeneID 31899)	1	1.26e5	1.27e5	2.10e5	1.88e5	8945	inactive
LPCAT (GeneID 31899)	2	85355	89285	1.35e5	1.36e5	7265	inactive
CG13532 (GeneID 37632)	1	1.67e5	1.53e5	1.28e5	1.64e5	10970	inactive
CG13367 (GeneID 31013)	1	1.33e5	1.32e5	2.41e5	2.09e5	10165	inactive
CG13367 (GeneID 31013)	2	1.43e5	1.82e5	2.54e5	3.26e5	12810	inactive
dve (GeneID 37546)	1	52395	43345	55315	66195	2560	inactive
nero (GeneID 43740)	1	1.41e5	1.52e5	2.04e5	2.19e5	10440	inactive
NimC3 (GeneID 48772)	1	1.30e5	1.37e5	1.29e5	1.61e5	11405	inactive
BRWD3 (GeneID 42898)	1	1.05e5	96350	1.27e5	1.41e5	17085	active
BRWD3 (GeneID 42898)	2	1.38e5	1.32e5	1.18e5	1.39e5	15292	inactive
TppII (GeneID 36444)	1	1.64e5	1.85e5	1.51e5	1.53e5	14360	inactive
Sgf29 (GeneID 37429)	1	2.31e5	1.61e5	1.77e5	1.83e5	16940	inactive
CG10469 (GeneID 38696)	1	2.04e5	1.85e5	1.93e5	2.28e5	9850	inactive
CG31253 + CG31131	1	1.71e5	1.78e5	1.98e5	2.31e5	16080	inactive
CG9067 (GeneID 36197)	1	1.26e5	1.37e5	1.47e5	1.22e5	11225	inactive
CG4842 (GeneID 39817)	1	1.29e5	1.10e5	2.16e5	2.23e5	6035	active
bru1 (GeneID 34648)	1	10025	10105	7432	5882	2735	inactive
bru1 (GeneID 34648)	2	12665	13305	12205	11300	3870	inactive
bru1 (GeneID 34648)	3	1.14e5	1.20e5	1.60e5	1.64e5	8615	inactive
bru1 (GeneID 34648)	4	94510	1.25e5	1.25e5	1.04e5	7945	inactive
bru1 (GeneID 34648)	5	1.86e5	1.49e5	1.15e5	1.28e5	15920	inactive
CG30484 (GeneID 36534)	1	2.05e5	1.80e5	2.50e5	2.80e5	17465	inactive
CG6293 (GeneID 41259)	1	1.37e5	1.25e5	89655	82890	9470	inactive
Unc-76 (GeneID 31179)	1	1.03e5	1.10e5	1.39e5	1.91e5	7600	inactive
Unc-76 (GeneID 31179)	2	1.09e5	97070	1.11e5	1.45e5	7055	inactive
CG17378 (GeneID 33951)	1	54630	40160	57690	43310	2425	inactive
Flo1 (GeneID 36726)	1	1.23e5	1.64e5	2.29e5	2.49e5	12645	inactive
CDK2AP1 (GeneID 32050)	1	1.95e5	1.60e5	1.99e5	1.43e5	12225	inactive
side-VII (GeneID 41184)	1	1.50e5	1.49e5	81000	76635	11665	inactive

Just “uninduced reporter light, run 1, well a”, for 4 of the entries above:
CG13367 (GeneID 31013) #2 = 12810
dve (GeneID 37546) = 2560
nero (GeneID 43740) = 10440
NimC3 (GeneID 48772) = 11405
